The values that follow come from patent US20240228660A1.

Protein sequences, listed by entry. Tags and fused reporters are not part of them. Residues count along the entry.
UniProt P02769, residues 25-607: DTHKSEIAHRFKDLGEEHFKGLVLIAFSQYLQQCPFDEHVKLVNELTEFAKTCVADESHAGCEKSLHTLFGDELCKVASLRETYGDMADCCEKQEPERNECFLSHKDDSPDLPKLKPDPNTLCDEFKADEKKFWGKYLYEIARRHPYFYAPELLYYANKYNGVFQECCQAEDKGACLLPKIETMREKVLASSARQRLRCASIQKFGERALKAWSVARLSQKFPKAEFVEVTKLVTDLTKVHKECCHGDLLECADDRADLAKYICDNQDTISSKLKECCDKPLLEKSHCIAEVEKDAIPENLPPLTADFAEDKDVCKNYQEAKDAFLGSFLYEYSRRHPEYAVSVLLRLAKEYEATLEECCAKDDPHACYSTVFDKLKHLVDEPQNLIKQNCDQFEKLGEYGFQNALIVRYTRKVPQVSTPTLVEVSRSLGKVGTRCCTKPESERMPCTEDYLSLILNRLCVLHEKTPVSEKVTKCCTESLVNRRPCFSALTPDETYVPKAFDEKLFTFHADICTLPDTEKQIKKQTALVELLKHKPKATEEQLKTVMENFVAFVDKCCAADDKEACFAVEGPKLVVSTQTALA

For the test, the target named is BSA (UniProt P02769). Description: ELISA, BSA coated at 100 ng/well, semi-log dilution of the mAb from 10 µg/ml, anti-human IgG-HRP/TMB. For orientation: ELISA stands for enzyme-linked immunosorbent assay.

No constants are given. Whether binding was seen depends on the method and setting.

B1: 4-H9 (antibody, human IgG1, V domains shown)
VH: QSVEESGGRLVTPGTPLTLTCTASGFSLNSFAMSWVRQAPGKGLEWIGIITVDGHTYYASWAKGRFTISKASTTVDLKITSPTTEDTATYFCAREDAGDAGYIYATYNIWGPGTLVTVSS
VL: AIEMTQTPSSLAASVGDTVTITCKASEDIGYGLAWYQQKLGIAPKLLIYGANTLESGVPSRFSGSGSETDYTLTISSVQAEDAGIYYCQQGYSTPPTFGAGTMVEIQ
In the case of B1, the binding result is recorded as “no binding (tested: 10 µg/ml)”.
